{"source": "PubChem BioAssay AID504834", "about": "(National Center for Advancing Translational Sciences (NCATS), 2011)", "note": "About 22,000 (6.9%) of roughly 320,000 compounds were called active. The inconclusive results got no clear call from the source; some entries with a clear call stand among them for comparison. Calls come from the whole dose curve; as a rule, active = well fitted inhibition curve with a large enough effect; inconclusive = small, poorly fitted or top-dose-only effect, or another doubt; inactive = no such curve, though single readings can be large or run the other way. A potency beside an inconclusive call is a rough fit, not a confirmed value. % is set by controls: 0 for no effect and ±100 for the full control effect; potency is the fitted concentration of half-maximal effect.", "data": [{"assay": "Primary qHTS for delayed death inhibitors of the malarial parasite plastid, 96 hour incubation", "conditions": "P. falciparum luciferase reporter growth; series mostly up to 28.7 µM", "how_it_was_run": "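Cell-based qHTS: luciferase-tagged P. falciparum in erythrocytes (2% hematocrit, 0.05% parasitemia final) incubated with compounds for 96 hours, 37 C, 5% CO2; luciferase detection reagent then added and luminescence measured.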", "values": [{"smiles": "Oc1ccc(CCc2n[nH]c(=S)n2-c2ccc(F)cc2)cc1", "Potency": "inactive"}, {"smiles": "O=C(c1cc2ccccc2c(=O)o1)N1CCCCCC1", "Potency": "inactive"}, {"smiles": "COc1cccc(/C=C2\\SC(=S)N(CCCC(=O)N3CCCCC3CCO)C2=O)c1", "note": "(configuration not stated)", "Potency": "active: 3.7 µM"}, {"smiles": "Cc1cccc(NC(=S)NC(=O)C2CC2)c1", "Potency": "inconclusive: 14.7 µM [inhibitor, single point]"}, {"smiles": "Cc1n[nH]c(=O)nc1N/N=C/c1cccs1", "Potency": "inconclusive: 2.08 µM [inhibitor, single point]"}, {"smiles": "O=C(NCc1cccnc1)/C(=C\\c1ccc(-c2ccc(Cl)c(Cl)c2)o1)S(=O)(=O)c1ccccc1", "Potency": "inconclusive: 18.5 µM [inhibitor, single point]"}, {"smiles": "COc1ccc(-c2cc(C)no2)cc1S(=O)(=O)N1CCCN(Cc2ccc(F)cc2)C1", "Potency": "inconclusive: 10.4 µM [inhibitor, single point]"}, {"smiles": "COc1ccc(-n2nc(C(=O)NCC(=O)N3CCCCCC3)c3ccccc3c2=O)cc1", "Potency": "inconclusive: 9.28 µM [inhibitor, partial curve]"}, {"smiles": "COc1cc(N)c(Cl)cc1C(=O)NC1CCN(Cc2ccccc2)CC1", "Potency": "inconclusive: 2.28 µM [inhibitor, partial curve]"}, {"smiles": "c1cncc(CSc2nnc(-c3cccnc3)n2Cc2ccco2)c1", "Potency": "inactive"}, {"smiles": "NC(=O)c1ccc(N2CCCCCC2)c([N+](=O)[O-])c1", "Potency": "inconclusive: 18.5 µM [inhibitor, single point]"}, {"smiles": "O=C(c1ccc2oc(CCCc3ccccc3)nc2c1)N1CCCC1", "Potency": "inactive"}, {"smiles": "Cc1ccc(-n2nc(C(=O)N3CCOCC3)cc2-c2ccc(Cl)cc2)cc1", "Potency": "inconclusive: 18.5 µM [inhibitor, single point]"}, {"smiles": "CCN(CC)C(=O)Oc1ccc2ccccc2c1Br", "Potency": "inactive"}, {"smiles": "Cc1nnc(NC(=O)CSc2nnc(NC(=O)C(C)(C)C)s2)s1", "Potency": "inactive"}, {"smiles": "CC(=O)COc1cccc2ccc(/C=C/c3ccc(Br)s3)nc12", "Potency": "inconclusive: 11.7 µM [inhibitor, single point]"}, {"smiles": "O=C(CSc1nnc(COc2cccc3cccnc23)o1)N1CCN(C(=O)c2ccco2)CC1", "Potency": "inconclusive: 10.4 µM [inhibitor, single point]"}, {"smiles": "O=C1CC(/C=C/c2cccnc2)=Nc2ccccc2N1", "Potency": "inconclusive: 10.4 µM [inhibitor, single point]"}, {"smiles": "Cc1nonc1OCCN1CCN(c2ccc([N+](=O)[O-])cc2)CC1", "Potency": "inconclusive: 0.738 µM [inhibitor, full curve, poor fit]"}, {"smiles": "O=c1c2cc(F)ccc2[nH]c(=S)n1Cc1ccc(F)cc1", "Potency": "inactive"}, {"smiles": "COc1cc(S(=O)(=O)N2CCCC2)c(C)cc1C", "Potency": "inconclusive: 7.38 µM [inhibitor, partial curve, poor fit]"}, {"smiles": "NC(=O)c1ccc(NC(=O)COC(=O)c2ccccc2Nc2ccccc2)cc1", "activity change, negative = inhibition": "inactive: 23.2% [at 5.75 µM]"}, {"smiles": "O=C(COc1ccc2ccccc2c1)N1CCN(Cc2ccncc2)CC1", "Potency": "inconclusive: 18.5 µM [inhibitor, single point]"}, {"smiles": "CCCCN(CC)Cc1c(O)ccc2c3c(c(=O)oc12)CCC3", "Potency": "inactive"}, {"smiles": "COc1ccc(CNC(=O)COC(=O)c2ccc(OCC3CCCO3)cc2)cc1", "note": "(configuration not stated)", "Potency": "inconclusive: 0.0738 µM [inhibitor, full curve, poor fit]"}, {"smiles": "O=C(CCn1nc(-c2ccccc2)ccc1=O)N1CCN(c2ccccc2)CC1", "Potency": "inconclusive: 2.33 µM [inhibitor, partial curve, poor fit]"}, {"smiles": "Fc1ccccc1CNc1ccc(Cl)c(Cl)c1", "Potency": "inactive"}, {"smiles": "COc1cccc(N(CC(=O)NC2CCCCC2)C(=O)CCC(=O)Nc2nccs2)c1", "Potency": "active: 11.7 µM"}, {"smiles": "CCOc1ccc(-n2c(=O)c3sccc3n(CC(=O)NC3CCCCC3)c2=O)cc1", "Potency": "inactive"}, {"smiles": "C=CCn1c(SCC(=O)OCc2ccccc2)nc2c1c(=O)n(C)c(=O)n2C", "Potency": "inconclusive: 9.28 µM [inhibitor, partial curve, poor fit]"}, {"smiles": "N=c1n(CCN2CCCCC2)c2ccccc2n1CC(O)c1ccco1", "note": "(configuration not stated)", "Potency": "inconclusive: 4.15 µM [inhibitor, partial curve, poor fit]"}, {"smiles": "COc1ccccc1CCNC(=O)C1CCC(=O)N(C2CCCCCC2)C1", "note": "(configuration not stated)", "Potency": "inconclusive: 9.28 µM [inhibitor, partial curve]"}, {"smiles": "O=C(Nc1cccc(S(=O)(=O)NC2=NCCCCC2)c1)c1cc(-c2ccncc2)nc2ccccc12", "Potency": "active: 11.7 µM"}, {"smiles": "COc1ccc(NC(=O)c2ccc3ccccc3n2)cc1S(=O)(=O)N1CCCCC1", "Potency": "inactive"}, {"smiles": "CC1(C)Cc2c(sc(NC(=O)C(=O)N3CCOCC3)c2C(N)=O)CO1", "Potency": "inconclusive: 18.5 µM [inhibitor, single point]"}, {"smiles": "COc1ccc(/C=C/C(=O)N2CCN(c3ccccc3)CC2)cc1S(=O)(=O)N1CCOCC1", "Potency": "inconclusive: 11.7 µM [inhibitor, single point]"}, {"smiles": "COc1ccc2c(c1)CCCN2C(N)=O", "Potency": "inconclusive: 13.1 µM [inhibitor, single point]"}, {"smiles": "CSc1ncccc1C(=O)N1CCCC(C(=O)c2ccc3ccccc3c2)C1", "note": "(configuration not stated)", "Potency": "inconclusive: 6.57 µM [inhibitor, partial curve, poor fit]"}, {"smiles": "CC(C)C(=O)Nc1ccc(NC(=O)c2ccco2)cn1", "Potency": "inconclusive: 0.0037 µM [inhibitor, full curve, poor fit]"}, {"smiles": "Cc1cc(Sc2nnc(/N=C/N(C)C)s2)c2ccccc2n1", "Potency": "inconclusive: 0.037 µM [inhibitor, full curve, poor fit]"}, {"smiles": "O=C(CN1CCCCCCC1)N/N=C/c1ccc(F)c(F)c1", "Potency": "inactive"}, {"smiles": "N#C/C(=N\\Nc1ccccc1)C(=N)N1CCCCC1", "Potency": "inactive"}, {"smiles": "O=C(O)c1ccccc1Nc1ccc([N+](=O)[O-])cc1", "Potency": "inconclusive: 1.47 µM [inhibitor, partial curve, poor fit]"}, {"smiles": "c1cn2c(Nc3ccc4c(c3)OCCO4)c(-c3ccc(N4CCOCC4)cc3)nc2cn1", "Potency": "inconclusive: 16.5 µM [inhibitor, single point]"}, {"smiles": "Nc1nnc(-c2ccccc2[N+](=O)[O-])o1", "Potency": "inactive"}, {"smiles": "CCC(C(=O)Nc1cccc(C(F)(F)F)c1)c1ccccc1", "note": "(configuration not stated)", "Potency": "inconclusive: 16.5 µM [inhibitor, single point]"}, {"smiles": "CCOc1ccccc1OCC(=O)NCc1ccco1", "Potency": "inconclusive: 5.86 µM [inhibitor, single point]"}, {"smiles": "COc1cc(SC)ccc1C(=O)Nc1nc2ccccc2[nH]1", "Potency": "active: 0.165 µM"}, {"smiles": "CCOc1ccc(NC(=O)c2ccc(CSc3nnnn3C)cc2)cc1", "Potency": "inconclusive: 9.28 µM [inhibitor, single point]"}, {"smiles": "Cc1sc2c(c1C)CN(C1CC(C)(C)NC(C)(C)C1)CN2C(=O)c1ccco1", "Potency": "inactive"}, {"smiles": "Cc1onc(-c2ccccc2Cl)c1C(=O)Nc1ccc(S(=O)(=O)N2CCCC2)cc1", "Potency": "inconclusive: 18.5 µM [inhibitor, single point]"}, {"smiles": "O=S(=O)(Cc1ccc(Cl)cc1)N1CCN(c2ncccn2)CC1", "Potency": "inactive"}, {"smiles": "Cc1sc(N)nc1-c1ccc2c(c1)OCCO2", "Potency": "inconclusive: 18.5 µM [inhibitor, single point]"}, {"smiles": "CC1(c2ccccc2Cl)NC(=O)N(CC(=O)Nc2cccnc2Cl)C1=O", "note": "(configuration not stated)", "Potency": "inconclusive: 20.8 µM [inhibitor, single point]"}, {"smiles": "CCN(c1ccccc1)S(=O)(=O)c1ccc(OC)c(NC(=O)Cc2ccc(F)cc2)c1", "Potency": "active: 10.4 µM"}, {"smiles": "Cc1nn(C)c(C)c1C1C(C#N)=C(N)OC2=C1C(=O)CC(C)(C)C2", "note": "(configuration not stated)", "Potency": "inconclusive: 11.7 µM [inhibitor, single point]"}, {"smiles": "N/C(=N\\OC(=O)CCCOc1ccc(Cl)cc1Cl)c1ccncc1", "Potency": "inactive"}, {"smiles": "C=C(C)[C@@H]1CCC2(C(=O)O)CC[C@]3(C)[C@H](CC[C@@H]4[C@@]5(C)CCC(=O)C(C)(C)[C@@H]5CC[C@]43C)[C@@H]12", "note": "(some centres not stated)", "Potency": "inconclusive: 4.15 µM [inhibitor, single point]"}, {"smiles": "Cc1ccccc1[C@@]1(C)ON(c2ccccc2C(F)(F)F)C1=O", "Potency": "active: 1.04 µM"}, {"smiles": "Cc1occc1C(=O)N/N=C/c1ccc(OCc2ccccc2)cc1", "Potency": "active: 10.4 µM"}, {"smiles": "CCCCSc1nnc2c(n1)OC=Nc1ccccc1-2", "Potency": "inactive"}, {"smiles": "CC(C)c1ccc(-c2nc3ccccc3s2)cc1", "Potency": "inconclusive: 18.5 µM [inhibitor, single point]"}, {"smiles": "O=C(C1CCN(S(=O)(=O)c2cccs2)CC1)N1CCCCC1", "Potency": "inactive"}, {"smiles": "C/C(=N\\NC(=O)c1cccc(N/N=C(\\C)c2ccc([N+](=O)[O-])cc2)c1)c1ccc([N+](=O)[O-])cc1", "Potency": "active: 4.15 µM"}, {"smiles": "Cc1ccc2nc(Cl)c(CN(C(=O)c3cnccn3)C3CCCCC3)cc2c1", "Potency": "inconclusive: 18.5 µM [inhibitor, single point]"}, {"smiles": "CCCCn1nnc(NC(=O)c2ccc(-c3cccc(Cl)c3)o2)n1", "Potency": "inactive"}, {"smiles": "CC(=O)Nc1nnc(SCc2ccc(C(=O)Nc3ccccc3F)cc2)s1", "Potency": "inconclusive: 9.28 µM [inhibitor, single point]"}, {"smiles": "CCCn1cc(CN2CCC(Cc3ccccc3)(C(=O)OCC)CC2)c(C)n1", "Potency": "active: 10.4 µM"}, {"smiles": "COc1ccc(NC2CC(=O)N(c3cccc([N+](=O)[O-])c3)C2=O)cc1", "note": "(configuration not stated)", "Potency": "inconclusive: 16.5 µM [inhibitor, partial curve, poor fit]"}, {"smiles": "COc1ccc(C(=O)NCCSc2ccccc2)cc1", "Potency": "inconclusive: 18.5 µM [inhibitor, single point]"}, {"smiles": "Cc1cc(NC(=O)COC(=O)CCCOc2ccc(Cl)cc2C)no1", "Potency": "inconclusive: 11.7 µM [inhibitor, single point]"}, {"smiles": "COc1ccc(-c2cn3c(C)c(C(=O)NCCN4CCOCC4)sc3n2)cc1", "Potency": "inconclusive: 1.04 µM [inhibitor, partial curve, poor fit]"}]}]}
